# Data from PubChem BioAssay AID2685 (National Center for Advancing Translational Sciences (NCATS), 2010).
# Some of the results follow. These are further read-outs of the screen, such as a control signal, another cell line or another target. No call is given for them. The list favours compounds with an active or inconclusive main result. Words in brackets tell the shape of the fitted curve; partial curves, single points and poor fits give uncertain potencies.
# Test: qHTS Assay for Lipid Storage Modulators in Drosophila S3 Cells;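 on cell number change: cells counted by Cell Tracker Red CMTPX staining in the red channel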
# Settings: BODIPY lipid droplet fluorescence, 18-24 h; for cell number change: measured here: cell count max response, cells fed with added oleic acid; for AC50: measured here: lipid fluorescence (Fed channel) AC50, cells fed with added oleic acid
# From the text: NIH Molecular Libraries Probe Production Centers Network [MLPCN] NIH Chemical Genomics Center [NCGC] MLPCN Grant: 1 R03 MH085686-01 Assay Submitter (PI): Beller, Mathias; Max-Planck-Institut fur Biophysikalische Chemie NCGC Assay Overview: Storing lipids as a reservoir for energy or the anabolism of elementary metabolites is a common feature of probably all cells and is conserved from bacteria to humans. The universal cellular lipid storage organelle is the so-called lipid storage droplet (LD). Although ubiquitous, LDs share a simple structure composed of a hydrophobic core that harbors the storage lipids, which is shielded by a droplet-specific phospholipid monolayer to which proteins are attached. The current model of LD biogenesis involves an incorporation of the lipid core into the membrane leaflets of the endoplasmic reticulum (ER) followed by a subsequent budding-like maturation of a LD, which ultimately pinches off. Once released, LD volume can increase by localized lipogenesis or fusion of existing droplet. Storage lipids are re-mobilized enzymatically by lipase activity. Lipase regulation in the adipocyte is heavily studied and involves multiple components including catecholamine signaling, the LD-associated proteins Perilipin and comparative gene identification (CGI-58) and at least two lipases named hormone sensitive lipase (HSL) and adipocyte triglyceride lipase (ATGL). LD regulation outside of the adipocyte is poorly understood and only few components are known. However, there is an urgent need to learn more about ectopic fat depots as mislocalized storage of lipids, for example in the liver or muscle, is an eminent health problem associated with insulin resistance or the metabolic syndrome. We developed a laser-scanning cytometer assay to enable 1,536-well screening and combined the results of the small molecules screen with an RNAi database based on lipid storage.
# Triacsin C (Sigma-Aldrich T-4540), an inhibitor of long-chain fatty acyl CoA synthetase that blocks synthesis of triglycerides, was used as a positive control for lipid under-storage. A total of 23 nL of compound solution of different concentrations were transferred to the assay plates using a Kalypsys pin tool equipped with a 1,536-pin array containing 10-nL slotted pins (FP1S10, 0.457-mm diameter, 50.8 mm long; V&P Scientific). One microliter of oleic acid (400 uM) was added, and the plate was lidded with stainless steel rubber gasket lined lids containing pinholes. […] Fluorescence was detected by excitation of the fluorophores with a 488-nm laser on an Acumen Explorer (TTP Lab Tech). […] Cells were detected using channel 3 (575-640 nm) with 5-um width and 100-um depth filters. The ratio of the number of objects in PMT channel 2 over the number of objects in PMT channel 3 was also calculated. […]
smiles,measurement,value
O=C(COc1ccc(Cl)cc1)Nc1cc(NC(=O)COc2ccc(Cl)cc2)cc(C(=O)O)c1,cell number change,2.65%
same,AC50,"20.6 µM [rising, partial curve]"
COc1cc(NS(=O)(=O)c2ccc(NC(=S)NC(=O)c3sc4ccccc4c3Cl)cc2)nc(OC)n1,cell number change,-11%
same,AC50,"20.6 µM [falling, single point]"
